No constants are given. Whether binding was seen depends on the method and setting. In cells and extracts the contact can be indirect. Some binding calls cover weakened binding; strength is not graded here.
T1: native human Fib3 secreted by serum-starved ARPE-19 cells (human (endogenous in ARPE-19)), Q12805
T1 chain: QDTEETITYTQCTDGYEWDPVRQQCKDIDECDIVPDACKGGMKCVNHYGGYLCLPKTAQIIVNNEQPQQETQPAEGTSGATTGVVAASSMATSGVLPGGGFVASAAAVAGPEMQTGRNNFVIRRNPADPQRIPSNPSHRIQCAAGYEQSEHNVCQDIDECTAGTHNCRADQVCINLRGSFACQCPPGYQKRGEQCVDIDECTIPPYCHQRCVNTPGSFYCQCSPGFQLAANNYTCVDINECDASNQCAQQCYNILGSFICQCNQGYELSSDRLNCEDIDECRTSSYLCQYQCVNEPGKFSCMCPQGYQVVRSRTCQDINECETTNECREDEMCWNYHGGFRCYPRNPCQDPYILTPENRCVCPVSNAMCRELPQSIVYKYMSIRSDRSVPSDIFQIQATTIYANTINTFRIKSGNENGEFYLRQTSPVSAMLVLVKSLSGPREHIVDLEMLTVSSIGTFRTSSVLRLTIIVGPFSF

T2: native human complement factor H (CFH), commercial, purified from pooled serum (human), P08603
T2 chain: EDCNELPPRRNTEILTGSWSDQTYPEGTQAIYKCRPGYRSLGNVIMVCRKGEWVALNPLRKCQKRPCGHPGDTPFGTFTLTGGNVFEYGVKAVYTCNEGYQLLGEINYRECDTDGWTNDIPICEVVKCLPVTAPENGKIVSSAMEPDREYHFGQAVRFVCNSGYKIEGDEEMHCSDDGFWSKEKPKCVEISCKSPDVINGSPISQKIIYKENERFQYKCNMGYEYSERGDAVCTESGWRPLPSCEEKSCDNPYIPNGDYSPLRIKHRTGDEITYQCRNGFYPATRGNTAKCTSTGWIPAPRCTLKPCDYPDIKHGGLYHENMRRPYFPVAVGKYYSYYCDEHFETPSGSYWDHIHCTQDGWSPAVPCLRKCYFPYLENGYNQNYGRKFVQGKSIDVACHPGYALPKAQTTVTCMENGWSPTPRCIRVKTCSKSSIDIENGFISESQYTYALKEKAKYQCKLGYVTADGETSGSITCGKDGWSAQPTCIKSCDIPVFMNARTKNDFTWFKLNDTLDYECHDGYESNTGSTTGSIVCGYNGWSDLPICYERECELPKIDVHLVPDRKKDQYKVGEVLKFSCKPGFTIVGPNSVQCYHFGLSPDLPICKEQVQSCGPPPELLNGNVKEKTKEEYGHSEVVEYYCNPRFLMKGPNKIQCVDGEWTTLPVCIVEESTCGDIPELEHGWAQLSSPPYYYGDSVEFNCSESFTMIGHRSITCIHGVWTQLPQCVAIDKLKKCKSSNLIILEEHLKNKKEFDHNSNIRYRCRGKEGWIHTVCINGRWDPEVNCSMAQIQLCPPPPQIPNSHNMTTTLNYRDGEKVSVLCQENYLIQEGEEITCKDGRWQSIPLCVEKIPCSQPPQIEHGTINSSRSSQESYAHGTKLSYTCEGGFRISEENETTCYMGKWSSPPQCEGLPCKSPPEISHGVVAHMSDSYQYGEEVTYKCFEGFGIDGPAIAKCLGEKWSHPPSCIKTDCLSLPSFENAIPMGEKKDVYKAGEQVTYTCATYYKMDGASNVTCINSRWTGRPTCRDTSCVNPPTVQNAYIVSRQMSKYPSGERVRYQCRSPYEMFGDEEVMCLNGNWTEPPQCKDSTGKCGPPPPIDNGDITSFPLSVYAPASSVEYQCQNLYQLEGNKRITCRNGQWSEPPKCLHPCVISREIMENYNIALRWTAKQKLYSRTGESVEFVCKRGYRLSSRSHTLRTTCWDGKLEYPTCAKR

B1: native human complement factor H (CFH), commercial, purified from pooled serum, P08603 19-1231 (protein)
chain: T2 chain
B2: native human Fib3 secreted by serum-starved ARPE-19 cells, Q12805 18-493 (protein)
chain: T1 chain

Columns and labels:
[1] = biological target: T1, native human Fib3 secreted by …; assay: co-IP; serum-free conditioned medium of ARPE-19 (or HEK293) cells with 0, 2 or 5 µg/ml added purified human CFH; IP with biotinylated anti-Fib3 antibody and streptavidin magnetic beads, overnight at 4°C; Western blot with anti-CFH; only the binder purified; conditions: remark: other sources report otherwise
[2] = biological target: T2, native human complement factor H (CFH), …; assay: co-IP; day 7 serum-free ARPE-19 conditioned medium with or without 2 µg added human CFH; IP with biotinylated anti-CFH antibody and streptavidin magnetic beads; Western blot with rabbit anti-Fib3; only the target purified; conditions: remark: other sources report otherwise

Binder	binding [1]	binding [2]
B1	binds	
B2		binds
